In publication PMC9372576:
Results are given in words; binding and its absence hold for the method and conditions named. Binding seen in cells or lysates may run through a third protein. A result given as binding can be weak or reduced; the word gives no strength.

By UniProt entry, the sequences of proteins in these tests, tags left out. Where a name states a change or a piece, a line headed by the entry shows the natural chain unless it says otherwise.
UniProt Q9HI16: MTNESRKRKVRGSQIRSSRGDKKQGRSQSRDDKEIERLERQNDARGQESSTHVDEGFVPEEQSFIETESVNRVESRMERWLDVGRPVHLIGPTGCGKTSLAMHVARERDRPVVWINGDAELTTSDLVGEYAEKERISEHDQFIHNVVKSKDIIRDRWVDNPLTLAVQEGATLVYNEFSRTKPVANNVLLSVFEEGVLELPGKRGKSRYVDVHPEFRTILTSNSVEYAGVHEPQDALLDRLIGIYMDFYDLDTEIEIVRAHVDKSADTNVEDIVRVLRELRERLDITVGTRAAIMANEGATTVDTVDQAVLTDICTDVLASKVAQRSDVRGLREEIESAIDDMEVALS

B1: GvpA (protein, UniProt P08958 1-76)
chain: MAQPDSSGLAEVLDRVLDKGVVVDVWARVSLVGIEILTVEARVVAASVDTFLHYAEEIAKIEQAELTAGAEAAPEA
B2: GvpC (protein, UniProt P24574 1-382)
chain: MSVTDKRDEMSTARDKFAESQQEFESYADEFAADITAKQDDVSDLVDAITDFQAEMTNTTDAFHTYGDEFAAEVDHLRADIDAQRDVIREMQDAFEAYADIFATDIADKQDIGNLLAAIEALRTEMNSTHGAFEAYADDFAADVAALRDISDLVAAIDDFQEEFIAVQDAFDNYAGDFDAEIDQLHAAIADQHDSFDATADAFAEYRDEFYRIEVEALLEAINDFQQDIGDFRAEFETTEDAFVAFARDFYGHEITAEEGAAEAEAEPVEADADVEAEAEVSPDEAGGESAGTEEEETEPAEVETAAPEVEGSPADTADEAEDTEAEEETEEEAPEDMVQCRVCGEYYQAITEPHLQTHDMTIQEYRDEYGEDVPLRPDDKT
B3: GvpO (protein, UniProt O51968 1-119)
chain: MADPANDRSEREEGGEDDETPPASDGNPSPSANSFTLSNAQTRAREAAQDLLEHQFEGMIKAESNDEGWRTVVEVVERNAVPDTQDIIGRYEITLDGTGDVTGYELLERYRRGDMKEEL

Biological target: CBDN (Halobacterium salinarum) (UniProt Q9HI16)
Experiment: pull-down; CBD-tagged bait and one untagged prey co-produced in Hfx. volcanii CBDX/Y transformants; lysate in 2.5 M KCl buffer pH 8.0 bound to cellulose (Avicel), six washes, elution with ethylene glycol, Western analysis with Gvp antisera

Row | Binder | binding
1 | B1 | binds
2 | B2 | binds
3 | B3 | binds
